Test results reported in article PMC13076686.
No constants are given. Whether binding was seen depends on the method and setting. In cells and extracts the contact can be indirect. Some results given as binding are weak or reduced against the parent protein; the word gives no strength.

Chains of the proteins cited; added tags and fusions are not shown.
UniProt Q8CFI0: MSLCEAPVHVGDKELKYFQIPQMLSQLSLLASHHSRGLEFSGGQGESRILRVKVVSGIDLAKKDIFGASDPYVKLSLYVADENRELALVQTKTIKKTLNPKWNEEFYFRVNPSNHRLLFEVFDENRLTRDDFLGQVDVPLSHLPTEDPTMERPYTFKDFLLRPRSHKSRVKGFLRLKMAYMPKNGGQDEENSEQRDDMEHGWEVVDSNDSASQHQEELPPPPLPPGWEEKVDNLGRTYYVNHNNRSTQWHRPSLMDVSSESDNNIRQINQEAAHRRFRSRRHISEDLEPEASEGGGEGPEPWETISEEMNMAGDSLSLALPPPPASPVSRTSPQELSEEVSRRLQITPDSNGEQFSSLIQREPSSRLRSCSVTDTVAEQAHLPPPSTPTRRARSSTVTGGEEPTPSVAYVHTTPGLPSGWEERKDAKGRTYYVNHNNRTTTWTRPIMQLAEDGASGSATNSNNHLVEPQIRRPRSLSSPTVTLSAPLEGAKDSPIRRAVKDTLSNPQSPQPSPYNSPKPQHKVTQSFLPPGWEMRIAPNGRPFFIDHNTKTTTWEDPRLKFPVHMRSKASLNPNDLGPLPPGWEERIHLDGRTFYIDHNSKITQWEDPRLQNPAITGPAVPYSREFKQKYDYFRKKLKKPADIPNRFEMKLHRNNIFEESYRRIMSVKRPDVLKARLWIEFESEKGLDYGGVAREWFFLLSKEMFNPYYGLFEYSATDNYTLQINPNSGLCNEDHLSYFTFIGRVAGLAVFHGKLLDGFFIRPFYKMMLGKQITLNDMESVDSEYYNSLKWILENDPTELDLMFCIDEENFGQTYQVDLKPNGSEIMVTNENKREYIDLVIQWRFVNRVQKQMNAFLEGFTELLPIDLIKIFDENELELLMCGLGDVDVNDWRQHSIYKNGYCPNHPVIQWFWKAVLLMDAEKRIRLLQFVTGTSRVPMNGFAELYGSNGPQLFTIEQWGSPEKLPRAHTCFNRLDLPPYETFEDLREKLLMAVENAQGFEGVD

Molecular target: T1, Gasdermin E (endogenous, kidney cortical collecting duct CCD cells) (mouse (endogenous in CCD)) (UniProt Q9Z2D3)
T1 sequence: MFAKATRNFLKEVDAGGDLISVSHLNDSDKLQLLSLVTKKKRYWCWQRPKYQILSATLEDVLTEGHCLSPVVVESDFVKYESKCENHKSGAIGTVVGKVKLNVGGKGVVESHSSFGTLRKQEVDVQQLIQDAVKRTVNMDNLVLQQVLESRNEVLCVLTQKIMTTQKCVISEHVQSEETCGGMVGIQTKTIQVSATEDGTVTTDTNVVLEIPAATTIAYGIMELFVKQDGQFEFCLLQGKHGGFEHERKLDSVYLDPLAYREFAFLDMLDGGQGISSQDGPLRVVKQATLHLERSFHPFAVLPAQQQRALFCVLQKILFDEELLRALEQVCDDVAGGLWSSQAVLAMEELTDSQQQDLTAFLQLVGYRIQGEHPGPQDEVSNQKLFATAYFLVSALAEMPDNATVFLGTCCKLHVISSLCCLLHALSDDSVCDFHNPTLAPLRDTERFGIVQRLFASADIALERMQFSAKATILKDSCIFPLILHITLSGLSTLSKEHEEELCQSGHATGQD
Experiment: co-IP; endogenous proteins in lysates of WT THP-1 and CCD cells (NEDD4L KO and GSDMD KO cells as controls); Verhagen lysis buffer (150 mM NaCl, 20 mM Tris-HCl pH 7.5, 2 mM EDTA, 10% glycerol, 1% Triton-X); Protein A/G magnetic agarose beads with antibody to NEDD4-2, GSDMD or GSDME, 4 °C overnight; immunoblot

binding: binds
Substance: NEDD4-2 (endogenous, kidney cortical collecting duct CCD cells) (from UniProt Q8CFI0 1-1004) (enzyme)
